Results as given in patent US11820787B2, “Benfotiamine derivatives in the treatment of alzheimer's disease” (SHANGHAI RAISING PHARMACEUTICAL CO., LTD., priority 2019, dated 2023).
For at least one compound, name, drawing or mass did not settle the structure. Some compounds share one wording; it may come from a single statement.

Legend:
[1] = system: Aβ40; test: Aβ40 content in culture supernatant of HEK293APP/sw overexpression cells (ELISA, adjusted to total protein); type: cell-based; conditions: APP/293 cells; in words
Description: (§1) (1) BCA protein concentration assay kit is purchased from Beyotime, Aβ40 and AB42 test kits are purchased from Wako Company. Except the fetal bovine serum (FBS) is purchased from Shanghai Pulong Biotechnology Research and Development Co. Ltd., the other related reagents are purchased from Gibico Company.
(§2) (2) HEK293APP/sw overexpression cell culture: cells are cultured in 48 microwell plate with DMEM culture solution (including 10% FBS, 100 μg/mL G418 (Geneticin) and penicillin and streptomycin), and a 4 mM stock in DMEM is diluted with DMEM to 400 μM and added to cell culture medium by 500 μL/well at 70% cell density and treated for 24 h.
(§3) (3) After the supernatant of culture solution is added to the BCA reagent at room temperature for 30 minutes, the absorption value of each well is measured at the OD 570 nm by the microplate reader and the total protein concentration is calculated according to the protein standard curve. Meanwhile, the concentration of Aβ40 and Aβ42 in the supernatant of culture solution is measured. Briefly, the supernatant is added to the 96 microwell plate coated by primary antibodies and incubated at 4° C. for overnight. Then the solution in the 96 microwell plate is removed and washed, and HRP (horseradish oxide enzyme) marked antibody is added to the solution and incubated at 4° C. for 2 hours. The antibody is removed and the plate is washed. After TMB substrate is added to each well at room temperature for 30 minutes, and the stop buffer is added to each well. The absorption value of each well is measured at the OD 450 nm by the microplate reader and the concentrations of Aβ40 and Aβ42 are calculated according to the standard curves of Aβ40 and Aβ42 respectively, and the final concentration is obtained by adjusting the concentrations of Aβ40 and Aβ42 according to the total protein concentration.

[2] = system: Aβ42; test: Aβ42 content in culture supernatant of HEK293APP/sw overexpression cells (ELISA, adjusted to total protein); type: cell-based; conditions: APP/293 cells; in words
Description: as §1, §2, §3

| SMILES | effect on the generation of Aβ40 peptides compared with blank control [1] | effect on the generation of Aβ42 peptides compared with blank control [2] |
| --- | --- | --- |
| C/C(=C(\CCOP(=O)(O)O)SC(=O)c1ccc(O)cc1)N(C=O)Cc1cnc(C)nc1N [Example 3, (Z)-S-(2-(N-((4-amino-2-methylpyrimidin-5-yl)methyl)formamido)-5-(phosphonooxy)pent-2-en-3-yl)4-hydroxybenzothioate] | no significant effect on reducing the generation | no significant effect on reducing the generation |
| C/C(=C(\CCOP(=O)(O)O)SC(=O)c1c(C)cccc1C)N(C=O)Cc1cnc(C)nc1N [Example 23, (Z)-S-(2-(N-((4-amino-2-methylpyrimidin-5-yl)methyl)formamido)-5-(phosphonooxy)pent-2-en-3-yl)2,6-dimethylbenzothioate] | cause even more generation | cause even more generation |
| C/C(=C(\CCOP(=O)(O)O)SC(=O)c1ccccc1[N+](=O)[O-])N(C=O)Cc1cnc(C)nc1N [Example 22, (Z)-S-(2-(N-((4-amino-2-methylpyrimidin-5-yl)methyl)formamido)-5-(phosphonooxy)pent-2-en-3-yl)2-nitrobenzothioate] | no significant effect on reducing the generation | no significant effect on reducing the generation |
| C/C(=C(\CCOP(=O)(O)O)SC(=O)c1ccc(F)cc1)N(C=O)Cc1cnc(C)nc1N [Example 7, (Z)-S-(2-(N-((4-amino-2-methylpyrimidin-5-yl)methyl)formamido)-5-(phosphonooxy)pent-2-en-3-yl)4-fluorobenzothioate] | cause even more generation | cause even more generation |
| C=Cc1ccc(C(=O)S/C(CCOP(=O)(O)O)=C(/C)N(C=O)Cc2cnc(C)nc2N)cc1 [Example 21, (Z)-S-(2-(N-((4-amino-2-methylpyrimidin-5-yl)methyl)formamido)-5-(phosphonooxy)pent-2-en-3-yl)4-vinylbenzothioate] | no significant effect on reducing the generation | no significant effect on reducing the generation |
